Here are results for 3 substances from patent US12503486 (dated 2025).

Data set [1] in a line: general procedure: Fmoc solid-phase peptide synthesis; AM, MBHA or CTC resin carrying the Formula (1) linker compound; PyBop/DIEA (on-resin cyclisation of PMX-53). The note with it: for isolated mass / crude yield / isolated yield / crude mass / final HPLC purity / crude HPLC purity: whole synthesis; for isolated mass: acetate; for crude mass: trifluoroacetate; for final HPLC purity: EP8.0, scale of the general procedure 1-5 mmol.

Data set [2] is described as follows: general procedure: Fmoc solid-phase peptide synthesis; Formula (viii)-CTC resin; PyBop/DIEA (on-resin cyclisation of PMX-53). The conditions noted are these: whole synthesis, scale 5 mmol, trifluoroacetate.
Data set [3] is described as follows: general procedure: Fmoc solid-phase peptide synthesis; AM resin; PyBop/DIEA (on-resin cyclisation of PMX-53). The conditions noted are these: whole synthesis, scale 1 mmol, trifluoroacetate.
[4] abbreviates: on 5 mmol resin NH2, scale of the general procedure 1-5 mmol, acetate (PMX-53: trifluoroacetate), run 1.
The mark [5] stands for this setting: on 5 mmol resin NH2, scale of the general procedure 1-5 mmol, acetate (PMX-53: trifluoroacetate), run 2.
Where [6] appears, read: acetate (PMX-53: trifluoroacetate).
Setting [7] is: on 5 mmol resin N-Fmoc, scale of the general procedure 1-5 mmol, acetate (PMX-53: trifluoroacetate).
[8] abbreviates: on 1 mmol resin NH2, scale of the general procedure 1-5 mmol, acetate (PMX-53: trifluoroacetate).

Regarding “Glp-His(Trt)-Trp(Boc)-Ser(t-Bu)-Tyr(t-Bu)-DLeu-Leu-Arg(pbf)-Pro-Formula (1)-resin”, the step yield in data set [1] (purification step, acetate (PMX-53: trifluoroacetate)) was found to be 65%. For the same substance, the values for the isolated mass in data set [1] (run 1), in data set [1] (run 2) and in data set [1] (run 3) were 2.46 g, 2.02 g and 2.35 g, respectively. Besides, the crude yield was determined as 92.6% in data set [1] (on 5 mmol resin NH2, purity-corrected, scale 5 mmol, acetate (PMX-53: trifluoroacetate)); 85.6% in data set [1] (setting [4]); 90.5% in data set [1] (setting [5]). Also, the isolated yield in data set [1] (setting [4]) is reported as 40.6%; in data set [1] (setting [5]), 33.4%; in data set [1] (on 5 mmol resin NH2, scale of the general procedure 1-5 mmol, acetate (PMX-53: trifluoroacetate), run 3) it was 38.8%. Moreover, the crude mass in data set [1] (scale 5 mmol, run 1) came to 5.87 g; in data set [1] (scale 5 mmol, run 2) it was 5.46 g; in data set [1] (scale 5 mmol, run 3) it was 5.71 g.
In data set [2], Alarelin acetate gave a crude mass of 10.78 g. In data set [1] (setting [6]), the “final HPLC purity” value is 99.76%. In data set [1] (EP (8.0) method, scale of the general procedure 1-5 mmol, acetate (PMX-53: trifluoroacetate)), the “crude HPLC purity” value was 96.14%. This substance also gave an isolated mass in data set [1] of 4.16 g. In data set [1] (setting [7]), this substance yielded a crude yield of 88.84% and an isolated yield of 35.5%.
In data set [3], Liraglutide acetate showed a crude mass of 3.72 g. Also, the “final HPLC purity” value in data set [1] (setting [6]) came to 99.21%. The substance further had an isolated mass in data set [1] of 0.68 g. Moreover, the “crude HPLC purity” value in data set [1] (assay according to EP8.0 (European Pharmacopoeia 8.0), scale of the general procedure 1-5 mmol, acetate (PMX-53: trifluoroacetate)) was found to be 67.45%. For the same substance, in data set [1] (setting [8]), the crude yield amounted to 66.9% and the isolated yield was found to be 18.1%.
